In publication PMC10770141:
Results are given in words; binding and its absence hold for the method and conditions named. Binding seen in cells or lysates may run through a third protein. Some binding calls cover weakened binding; strength is not graded here.

Sequences of proteins named here, by UniProt entry; tags and fusion partners are left off. A change or cut given only in a name is not applied to a line headed by its entry. A line that says so, or that is headed by a name, gives the form on record, which may keep a tag or linker. Residues count along the entry.
UniProt Q03135: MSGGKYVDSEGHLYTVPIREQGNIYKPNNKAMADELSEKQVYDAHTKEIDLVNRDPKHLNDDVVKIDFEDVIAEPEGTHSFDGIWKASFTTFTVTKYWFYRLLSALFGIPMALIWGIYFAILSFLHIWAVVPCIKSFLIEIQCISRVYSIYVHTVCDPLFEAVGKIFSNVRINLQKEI
GST-CAV1(61-101): residues 61-101 of Q03135
T7-tagged human Caveolin-1 ΔCSD (pcDNA3.1-T7-hCAV1 ΔCSD, 81-101 deletion) (Q03135, form named): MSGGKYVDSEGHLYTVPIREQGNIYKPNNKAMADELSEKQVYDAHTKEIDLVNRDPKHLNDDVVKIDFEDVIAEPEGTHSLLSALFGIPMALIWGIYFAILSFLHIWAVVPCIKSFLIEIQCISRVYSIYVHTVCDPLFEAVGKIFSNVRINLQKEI
UniProt Q13873, residues 27-1038: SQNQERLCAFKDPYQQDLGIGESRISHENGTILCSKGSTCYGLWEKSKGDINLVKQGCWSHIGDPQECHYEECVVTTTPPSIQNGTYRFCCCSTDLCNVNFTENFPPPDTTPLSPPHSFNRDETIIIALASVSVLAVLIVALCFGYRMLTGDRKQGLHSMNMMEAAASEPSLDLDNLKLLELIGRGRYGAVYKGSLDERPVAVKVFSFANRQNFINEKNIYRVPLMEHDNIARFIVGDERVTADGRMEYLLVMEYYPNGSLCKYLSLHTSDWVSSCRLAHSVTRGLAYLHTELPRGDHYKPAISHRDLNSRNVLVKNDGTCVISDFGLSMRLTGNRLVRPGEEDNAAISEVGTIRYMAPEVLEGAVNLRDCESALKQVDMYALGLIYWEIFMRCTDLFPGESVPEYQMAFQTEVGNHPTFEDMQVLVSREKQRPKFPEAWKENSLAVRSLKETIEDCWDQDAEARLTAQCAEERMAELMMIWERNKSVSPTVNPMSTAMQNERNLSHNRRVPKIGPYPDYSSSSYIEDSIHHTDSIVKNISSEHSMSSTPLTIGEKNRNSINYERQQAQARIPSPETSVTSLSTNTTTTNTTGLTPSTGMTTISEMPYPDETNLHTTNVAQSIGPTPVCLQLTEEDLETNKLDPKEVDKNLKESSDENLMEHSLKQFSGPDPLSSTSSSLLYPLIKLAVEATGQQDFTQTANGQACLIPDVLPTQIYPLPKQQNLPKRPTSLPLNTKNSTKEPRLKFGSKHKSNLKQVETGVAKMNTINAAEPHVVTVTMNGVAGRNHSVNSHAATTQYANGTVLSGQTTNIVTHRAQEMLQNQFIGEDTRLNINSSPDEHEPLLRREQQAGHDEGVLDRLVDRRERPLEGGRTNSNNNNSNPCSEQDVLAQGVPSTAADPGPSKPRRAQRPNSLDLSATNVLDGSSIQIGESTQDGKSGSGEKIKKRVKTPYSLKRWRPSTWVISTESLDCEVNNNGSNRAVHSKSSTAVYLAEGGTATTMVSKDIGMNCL

How the values were obtained:
[1] = target: GST-CAV1(61-101) (UniProt Q03135); experiment: pull-down; GST-CAV1 fragments on glutathione-Sepharose beads, incubated with lysates of 293FT cells transfected with FLAG-Cavin-1 or BMPR2-myc, 4 °C, 2 h; blot with anti-FLAG or anti-myc; only the target purified
[2] = target: GST-CAV1(61-101) (UniProt Q03135); experiment: pull-down; GST-CAV1(61-101) on glutathione-Sepharose beads, incubated with lysates of 293FT cells transfected with BMPR2-myc and/or FLAG-Cavin-1 (co-expression); blot with anti-myc or anti-FLAG; only the target purified
[3] = target: GST-CAV1(61-101) (UniProt Q03135); experiment: pull-down; GST or GST-CAV1(61-101) on glutathione-Sepharose beads, incubated with lysate of 293FT cells transfected with BMPR2-myc, with or without recombinant Cavin-1 protein; blot with anti-myc; only the target purified
[4] = target: Caveolin-1 (CAV1), endogenous in human pulmonary artery endothelial cells (human (endogenous in hPAECs)) (UniProt Q03135); experiment: proximity ligation; Duolink II kit for CAV1 and BMPR2 in hPAECs transfected with pcDNA3.1+ or pFLAG-CMV-4-hCavin-1
[5] = target: Caveolin-1 (CAV1), endogenous in human pulmonary artery endothelial cells (human (endogenous in hPAECs)) (UniProt Q03135); experiment: proximity ligation; Duolink II kit in hPAECs with anti-CAV1 and anti-Cavin-1 or anti-BMPR2 antibodies; normoxia or hypoxia for 2 h; PLA signals counted in each cell
[6] = target: Myc-tagged human BMPR2 (pcDNA3-hBMPR2-myc) (human) (UniProt Q13873); experiment: co-IP; 293FT cells transfected with hBMPR2-myc and/or T7-hCAV1 and/or T7-hCAV1ΔCSD; lysates precipitated with anti-T7 or anti-myc antibodies
[7] = target: Myc-tagged human BMPR2 (pcDNA3-hBMPR2-myc) (human) (UniProt Q13873); experiment: co-IP; 293FT cells transfected with T7-hCAV1 and/or hBMPR2-myc and/or FLAG-hCavin-1; lysates precipitated with anti-myc antibody on magnetic beads, 4 °C overnight

“Myc-tagged human BMPR2 (pcDNA3-hBMPR2-myc) (from UniProt Q13873 27-1038) (receptor)” was tested, and the binding [1] was “binds”, the binding [2] was “binds” and the binding [3] was “binds”.
In the case of “Bone morphogenetic protein type 2 receptor (BMPR2), endogenous in human pulmonary artery endothelial cells (from UniProt Q13873 27-1038)”, the binding [4] is reported as “binds” and the binding [5] is reported as “binds”.
For “T7-tagged human Caveolin-1 ΔCSD (pcDNA3.1-T7-hCAV1 ΔCSD, 81-101 deletion) (from UniProt Q03135 1-178)”, the binding [6] was “no binding”.
“T7-tagged human Caveolin-1 (pcDNA3.1-T7-hCAV1) (from UniProt Q03135 1-178)” was tested, and the binding [7] was “binds” and the binding [6] was “binds”.
